The test deals with paxillin (human (endogenous in MCF-7)) (UniProt P49023). The experiment in a line: co-IP; cells lysed in cold RIPA buffer with phosphatase and protease inhibitors; lysates pre-cleared 1 h with protein A/G-agarose beads, incubated overnight with paxillin-Trap agarose beads at 4 °C; bound protein eluted and blotted.

By UniProt entry, the sequences of proteins in these tests, tags left out.
UniProt P49023: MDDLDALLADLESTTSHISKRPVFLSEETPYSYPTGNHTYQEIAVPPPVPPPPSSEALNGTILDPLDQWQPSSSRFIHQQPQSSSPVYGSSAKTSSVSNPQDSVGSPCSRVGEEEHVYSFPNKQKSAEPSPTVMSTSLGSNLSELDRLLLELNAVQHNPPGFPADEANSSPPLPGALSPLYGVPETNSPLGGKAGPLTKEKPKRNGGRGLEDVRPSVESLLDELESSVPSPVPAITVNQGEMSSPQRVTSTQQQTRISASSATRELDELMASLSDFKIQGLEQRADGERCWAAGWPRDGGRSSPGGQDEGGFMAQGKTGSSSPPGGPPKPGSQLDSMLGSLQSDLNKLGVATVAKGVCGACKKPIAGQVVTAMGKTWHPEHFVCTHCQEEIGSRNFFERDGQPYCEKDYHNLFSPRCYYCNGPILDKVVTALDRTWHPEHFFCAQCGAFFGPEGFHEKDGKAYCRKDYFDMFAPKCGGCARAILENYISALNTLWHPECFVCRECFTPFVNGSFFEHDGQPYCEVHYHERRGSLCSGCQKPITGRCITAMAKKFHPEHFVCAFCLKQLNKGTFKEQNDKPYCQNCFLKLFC

These are yes or no findings as the source states them, for the method shown. In cells and extracts the contact can be indirect. Some entries that bind do so weakly or less than the wild type.

B1: SEPT9 isoform 1 protein (SEPT9_i1) (protein, UniProt Q9UHD8-1 1-586)
chain: MKKSYSGGTRTSSGRLRRLGDSSGPALKRSFEVEEVETPNSTPPRRVQTPLLRATVASSTQKFQDLGVKNSEPSARHVDSLSQRSPKASLRRVELSGPKAAEPVSRRTELSIDISSKQVENAGAIGPSRFGLKRAEVLGHKTPEPAPRRTEITIVKPQESAHRRMEPPASKVPEVPTAPATDAAPKRVEIQMPKPAEAPTAPSPAQTLENSEPAPVSQLQSRLEPKPQPPVAEATPRSQEATEAAPSCVGDMADTPRDAGLKQAPASRNEKAPVDFGYVGIDSILEQMRRKAMKQGFEFNIMVVGQSGLGKSTLINTLFKSKISRKSVQPTSEERIPKTIEIKSITHDIEEKGVRMKLTVIDTPGFGDHINNENCWQPIMKFINDQYEKYLQEEVNINRKKRIPDTRVHCCLYFIPATGHSLRPLDIEFMKRLSKVVNIVPVIAKADTLTLEERVHFKQRITADLLSNGIDVYPQKEFDEDSEDRLVNEKFREMIPFAVVGSDHEYQVNGKRILGRKTKWGTIEVENTTHCEFAYLRDLLIRTHMQNIKDITSSIHFEAYRVKRLNEGSSAMANGMEEKEPEAPEM
As for B1, the binding result is on record as “binds”.

Values taken from publication PMC6763430.
